Values from PubChem BioAssay AID1259425 (University of Nebraska Medical Center, 2018)
Shown is a random part of about 14,000 reagents. A reagent listed more than once was tested more than once; the source does not tell the runs apart. Reagent sequences are not shown. Not stated in the record: the time to read-out.

Assay: 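Compare each knockdown with KSR1 silencing using changes in marker transcripts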 (primary screen)
Cell system: HCT116 human colon cancer cells
Reagent: siRNA pool against human genes, 50 nM siRNA
Measurement: 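mRNA of six signature genes measured together by branched-DNA assay after 50 nM siRNA pool, blank removed, divided by geometric mean of two housekeeping genes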
Scale: BNIP3L mRNA: higher = more BNIP3L transcript after knockdown; NDRG1 mRNA: higher = more NDRG1 transcript after knockdown; BNIP3 mRNA: higher = more BNIP3 transcript after knockdown; ALDOC mRNA: higher = more ALDOC transcript after knockdown; ACSL5 mRNA: higher = more ACSL5 transcript after knockdown

| target | BNIP3L mRNA, set 1 | NDRG1 mRNA, set 1 | BNIP3 mRNA, set 1 | ALDOC mRNA, set 1 | ACSL5 mRNA, set 1 |
| --- | --- | --- | --- | --- | --- |
| SUDS3 | 0.339 | 0.498 | 0.382 | 0.012 | 0.2 |
| MS4A6A | 0.077 | 0.177 | 0.3 | 0.02 | 0.183 |
| MFAP2 | 0.0876 | 0.123 | 0.161 | 0.0147 | 0.15 |
| SLC25A15 | 0.321 | 0.262 | 0.283 | 0.0798 | 0.105 |
| NDN | 0.141 | 0.125 | 0.417 | 0.0167 | 0.347 |
| RGS5 | 0.17 | 0.131 | 0.391 | 0.0382 | 0.201 |
| MAPK3 | 0.09 | 0.0571 | 0.277 | 0.0152 | 0.168 |
| CDC14C | 0.0922 | 0.163 | 0.253 | 0.0274 | 0.276 |
| HSF4 | 0.107 | 0.257 | 0.313 | 0.00694 | 0.267 |
| GPR61 | 0.199 | 0.125 | 0.211 | 0.0718 | 0.129 |
| ERBIN | 0.0729 | 0.102 | 0.304 | 0.023 | 0.224 |
| TBL3 | 0.148 | 0.913 | 0.738 | 0.0687 | 0.393 |
| UBA52 | 0.0749 | 0.212 | 0.2 | 0.00788 | 0.062 |
| DEPTOR | 0.0867 | 0.213 | 0.268 | 0.0349 | 0.151 |
| LMO3 | 0.163 | 0.276 | 0.416 | 0.0379 | 0.171 |
| CCL25 | 0.173 | 0.167 | 0.338 | 0.0618 | 0.248 |
| UBE2D3 | 0.129 | 0.198 | 0.318 | 0.0263 | 0.223 |
| ZNF444 | 0.0506 | 0.149 | 0.459 | 0.0259 | 0.0641 |
| PRKCQ | 0.0808 | 0.0747 | 0.256 | 0.0138 | 0.212 |
| EDA2R | 0.0717 | 0.357 | 0.251 | 0.0107 | 0.135 |
| RSAD1 | 0.168 | 0.435 | 0.293 | 0.0375 | 0.196 |
| TNFRSF21 | 0.0822 | 0.202 | 0.294 | 0.0314 | 0.175 |
| GPR20 | 0.148 | 0.204 | 0.326 | 0.0868 | 0.243 |
| DDX52 | 0.0502 | 0.125 | 0.229 | 0.017 | 0.102 |
| PHB1 | 0.0999 | 0.298 | 0.138 | 0.00818 | 0.15 |
| PRKX | 0.0757 | 0.0776 | 0.351 | 0.00726 | 0.142 |
| RAP1GDS1 | 0.0736 | 0.0719 | 0.165 | 0.02 | 0.0532 |
| EHD1 | 0.239 | 0.66 | 0.528 | 0.0283 | 0.346 |
| MOB1A | 0.344 | 0.716 | 0.396 | 0.12 | 0.216 |
| PIP | 0.115 | 0.228 | 0.415 | 0.0589 | 0.286 |
| MMADHC | 0.135 | 0.18 | 0.242 | 0.0262 | 0.151 |
| TTC19 | 0.054 | 0.247 | 0.305 | 0.0202 | 0.367 |
| RASGRP4 | 0.0823 | 0.459 | 0.345 | 0.00948 | 0.222 |
| BTN2A1 | 0.182 | 0.233 | 0.389 | 0.0156 | 0.178 |
| BTN2A1 | 0.116 | 0.204 | 0.376 | 0.0157 | 0.183 |
